Assay results reported in paper PMC7898450.
Numbering of substitutions follows the chain as printed. Results are given in words; binding and its absence hold for the method and conditions named. In cells and extracts the contact can be indirect. Some results given as binding are weak or reduced against the parent protein; the word gives no strength. Where a sequence is shown, tags or fusion partners need not be part of it.

By UniProt entry, the sequences of proteins in these tests, tags left out.
UniProt Q14247: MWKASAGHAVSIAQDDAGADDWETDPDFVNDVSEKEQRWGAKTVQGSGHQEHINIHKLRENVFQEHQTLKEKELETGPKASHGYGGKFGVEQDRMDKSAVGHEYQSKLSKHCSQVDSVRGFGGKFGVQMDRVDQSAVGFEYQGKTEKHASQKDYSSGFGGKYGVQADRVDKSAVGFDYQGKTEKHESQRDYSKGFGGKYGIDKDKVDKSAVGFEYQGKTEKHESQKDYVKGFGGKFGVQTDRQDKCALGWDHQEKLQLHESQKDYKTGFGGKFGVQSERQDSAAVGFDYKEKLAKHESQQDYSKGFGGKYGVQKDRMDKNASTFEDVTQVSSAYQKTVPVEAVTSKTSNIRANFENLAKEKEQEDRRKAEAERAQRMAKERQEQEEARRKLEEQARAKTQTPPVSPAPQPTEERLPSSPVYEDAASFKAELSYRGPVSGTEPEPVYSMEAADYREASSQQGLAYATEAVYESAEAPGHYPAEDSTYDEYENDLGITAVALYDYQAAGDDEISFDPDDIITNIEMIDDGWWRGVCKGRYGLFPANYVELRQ

Key:
Test in all cases: co-IP; GFP-nanotrap beads on whole-cell lysates of transfected HEK 293T cells (GFP-fused L-plastin constructs as bait), 2 h at 4 °C, 150 mM NaCl, 0.5 mM EDTA, pH 7.5; cells treated with or without 0.1 µM PMA for 1 h; endogenous cortactin detected by immunoblot
L-plastinS5A-GFP = target: T1, L-plastinS5A-GFP (UniProt P13796)
T1 sequence: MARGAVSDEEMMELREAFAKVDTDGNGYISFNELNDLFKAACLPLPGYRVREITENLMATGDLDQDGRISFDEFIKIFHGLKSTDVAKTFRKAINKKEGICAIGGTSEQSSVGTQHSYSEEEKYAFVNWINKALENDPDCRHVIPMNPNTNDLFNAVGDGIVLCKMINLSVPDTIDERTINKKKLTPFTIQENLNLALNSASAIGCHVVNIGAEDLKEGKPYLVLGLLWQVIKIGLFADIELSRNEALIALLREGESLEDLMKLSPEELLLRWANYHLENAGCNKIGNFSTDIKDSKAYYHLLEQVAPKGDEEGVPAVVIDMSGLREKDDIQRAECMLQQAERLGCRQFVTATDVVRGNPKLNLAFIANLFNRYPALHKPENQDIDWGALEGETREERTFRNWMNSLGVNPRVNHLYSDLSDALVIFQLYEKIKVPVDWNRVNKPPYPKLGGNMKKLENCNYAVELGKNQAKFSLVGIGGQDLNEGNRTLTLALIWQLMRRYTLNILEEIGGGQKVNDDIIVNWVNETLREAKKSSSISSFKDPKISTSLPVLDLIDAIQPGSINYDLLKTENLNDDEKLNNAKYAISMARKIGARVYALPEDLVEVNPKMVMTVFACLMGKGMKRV

L-plastinS5E-GFP = target: T2, L-plastinS5E-GFP (UniProt P13796)
T2 sequence: T1 sequence with A5E

L-plastinWT-GFP = target: T3, L-plastinWT-GFP (UniProt P13796)
T3 sequence: T1 sequence with A5S

Measured: binding

cortactin (from UniProt Q14247 1-550)
binds: all assays above
